Test results taken from article PMC7532188.
No constants are given. Whether binding was seen depends on the method and setting. For some assays here: Binding seen in cells or lysates may run through a third protein. Some entries that bind do so weakly or less than the wild type.

Columns and labels:
[1] = target: TASOR (transgene activation suppressor), exogenously expressed in HUSH triple KO cells (human) (UniProt Q9UK61); assay: co-IP; pairwise combinations of HUSH subunits exogenously expressed in HUSH triple KO cells; reciprocal co-IP and immunoblot; lysis in 1% NP-40 in TBS with benzonase, 2 h at 4 °C
[2] = target: TASOR(106–332), DUF3715 / PARP domain (human) (UniProt Q9UK61); assay: NMR relaxation (T1/T2 ratio, tumbling correlation time); TASOR(106–332) at 250 µM in PBS pH 7.0, 1 mM TCEP; τC ~15 ns; both purified

| Molecule | binding [1] | binding [2] |
| --- | --- | --- |
| M-phase phosphoprotein 8 (MPP8), exogenously expressed in HUSH triple KO cells (from UniProt Q99549-1 1-860) | binds |  |
| TASOR(106–332), DUF3715 / PARP domain (domain or fragment, UniProt Q9UK61-1 106-332) SREKKALFQPLTPGSREFEDVVNILHSSYLEPTSVTNFNYRRACLVHNELLEKEFTEKRRELKFDGRLDKELSESYAFLMVDRYQVQTICEKGLHVGQSKITILGSPSMGVYLSRYADLLQANPLDTGAMGDVVIFKIMKGKIKSIYDPMGVKSLESMLNKSALDPTPKHECHVSKNANRITSLLAYRAYELTQYYFYEYGFDELRRRPRHVCPYAVVSFTYKDDIQ |  | no binding (tested: 250 µM) |
